# According to US8614187B2, “Peptides, compositions and uses thereof” (The Queen's University of Belfast, priority 2007, dated 2013):
# At least one structure is not confirmed: it was looked up by name or label, or the drawing left a doubt. Ends that are not written are not given here.
# How the values were obtained:
# [1] = test system: rat tail arterial smooth muscle preparation; experiment: Rat tail artery smooth muscle bioassay (relaxation of phenylephrine-preconstricted artery); format: cell-based
# Protocol: (A) Arterial Smooth Muscle:
# Male albino Wistar rats (200-350 g) were euthanized by asphyxiation followed by cervical dislocation.
# The tail artery was prepared as previously described (Hirst et al (1994) Br. J. Radiol. 67, 795-799). Incubation buffer was 95% O2/5% CO2 oxygenated Krebs' solution (NaCl 118 mM, KCl 4.7 mM, NaHCO3 25 mM, NaH2 PO4 1.15 mM, CaCl2 2.5 mM, MgCl2 1.1 mM, glucose 5.6 mM). Constriction or dilation of the arterial smooth muscle preparation was detected by an increase or decrease in pressure generated by water column displacement using pressure transducers connected to a MacLab System (AD Instruments Pty Ltd. Australia). […] Viability was determined using a range of bolus phenylephrine (5 μM-10 μM) exposures and the endothelial layer of the artery was removed by bubbling with oxygen for 10 s. Absence of the endothelial layer was confirmed by the lack of relaxation in response to a 30 min perfusion of acetylcholine (50 μM) after preconstriction with phenylephrine (10 μM).
# (§1) For intestinal smooth muscle preparations, one cm thick rings of ileum were carefully placed onto the pins of a MacLab force transducer, one pin acting as a stationary fixed point while the second pin was free, permitting application of tension to the smooth muscle. The muscle rings were gradually exposed to 0.1 g increments in resting tension until the spontaneous contractions originated from a resting tension of 0.5 g. The contracting muscle preparations were allowed to stabilise for 25 min before the application of peptides. After perfusion of arterial preparations with 10 μM phenylephrine to obtain constriction plateaux, relative relaxation was recorded following applications of peptides in the range of 1×10^−5-1×10^−10 M. The intestinal smooth muscle ring preparations were exposed to peptide doses as above and relative changes in tension were recorded.
# [2] = test system: rat ileal smooth muscle ring preparation; experiment: Rat ileum smooth muscle ring bioassay (constriction of spontaneously contracting ileum); format: cell-based
# Source text: (B) Small Intestinal Smooth Muscle:
# as §1
sequence,measurement,setting,value
"RPPGFSPFR [Bk, bradykinin, reference compound]",EC50,[1]; rat tail artery relaxation,0.0118 µM
same,Optimum Concentration,[1]; rat tail artery relaxation,10^−6 M
same,% Maximum Response (relaxation),"[1]; rat tail artery, pre-constricted, at optimum concentration",32% relaxation
same,EC50,[2]; rat ileum constriction,0.0118 µM
same,Optimum Concentration,[2]; rat ileum constriction,10^−6 M
same,% Maximum Response (constriction),"[2]; spontaneously contracting rat ileum, at optimum concentration",37% Constriction
